Test [1] has as its system Tunel positive cells in brain tissue. Nature of the test: Apoptosis level in brain tissue by TUNEL assay. It counts as in vivo, ICR mice. The note with it: donepezil group, no significant change. The procedure:
(§1) Subsequently, the syringe was allowed to stand for 5 minutes and then removed.
Then, an apoptosis level was checked through TUNEL assay. The TUNEL assay is a method to search for cells that have undergone apoptosis by attaching a fluorescent substance to ends of DNA fragments cleaved due to apoptosis. The extracted brain tissue of the experimental animal is fixed by perfusion with 4% formaldehyde. Then, the brain tissue was embedded in paraffin and sectioned to a thickness of 5 μm. The brain tissue fixed on a slide was subjected to a TUNEL assay kit so that the end portions where DNA having undergone apoptosis had been fragmented are fluorescence-stained, and checked by a fluorescence microscope.

Test [2] relates to acetylcholine in brain tissues. Put plainly: Acetylcholine content in brain tissue. It counts as in vivo, ICR mice. The note with it: donepezil group. The procedure: as §1
Measurement of acetylcholine in brain tissues was performed based on response of o-acyl derivatives with alkaline hydroxylamine. Specifically, 50 μl of brain tissue was taken and 50 μl of 1% hydroxylamine (Sigma, USA) was added and mixed. […] Finally, 500 μl of FeCl3 (10% in 0.1 N HCl) was added to measure an acetylcholine level (umole/mg protein), and then the absorbance was measured at 530 nm.

With `COc1cc2c(cc1OC)C(=O)C(CC1CCN(Cc3ccccc3)CC1)C2` (centres unmarked) [donepezil, reference compound], in test [1], the “number of Tunel positive cells” value came out at 113.83±14.77. In test [2], this compound returned an acetylcholine content of 23.19 μmole/mg protein.

The values are drawn from patent US20250376441A1, “NOVEL COMPOUND AND PHARMACEUTICAL COMPOSITION COMPRISING SAME AS ACTIVE INGREDIENT” (Industry-Academic Cooperation Foundation, Yonsei University, priority 2017, published 2025).
